Record: PubChem BioAssay AID504764 (Drosophila RNAi Screening Center, 2011)
The deposit covers about 22,000 reagents; below is an unselected part of those with a known target gene and a result. Of all reagents, 403 (1.9%) are marked active. 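Unnormalised raw counts per well; ratio z-scores behind the hit calls and whether each hit raises or lowers signal are not deposited.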 A plus sign joins genes that one reagent is predicted to hit. Not given: the amount of reagent.

- Aim: 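Knock-downs that raise or lower a Notch target reporter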 (primary screen)
- Cell system: Drosophila Kc167 cells
- Reagents: long dsRNA against Drosophila genes
- Timing: about 5 days (4 days dsRNA, then 24 h after transfection)
- Treatment: transfection of constitutively active membrane-tethered Notch lacking the extracellular domain, read 24 h later
- Measured: 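Light from a Notch-responsive E(spl)m3 luciferase reporter under active Notch, with control-promoter and no-Notch reporter wells to normalise; raw counts from paired wells a and b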
- Scale: induced reporter light, run 1, well a and induced reporter light, run 1, well b: higher = more light from the Notch target reporter with active Notch; control promoter light, run 1, well a and control promoter light, run 1, well b: higher = more light from the viral control promoter (cell number, transfection, viability); uninduced reporter light, run 1, well a: higher = more light from the Notch target reporter without active Notch
- Hit rule: 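Hit if the duplicate-averaged log2 ratio of induced to control-promoter light gives a plate-wise z beyond ±2, or induced to uninduced beyond ±1.8; weak-control or discordant-duplicate wells dropped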
- Meaning of the calls: active = modifier hit (raised or lowered Notch signal); inactive = not a hit

target gene | DRSC id | induced reporter light, run 1, well a | induced reporter light, run 1, well b | control promoter light, run 1, well a | control promoter light, run 1, well b | uninduced reporter light, run 1, well a | Call
Ssl2 (GeneID 43424) | DRSC14395 | 1.47e5 | 1.17e5 | 1.80e5 | 1.88e5 | 12810 | inactive
sbr (GeneID 43944) | DRSC19770 | 1.03e5 | 93055 | 1.12e5 | 1.50e5 | 5670 | inactive
sbr (GeneID 43944) | DRSC20368 | 45925 | 41965 | 55610 | 44070 | 2745 | inactive
CG5104 (GeneID 40280) | DRSC11765 | 1.49e5 | 1.03e5 | 97540 | 93725 | 7075 | inactive
CG33012 (GeneID 36342) | DRSC06287 | 1.02e5 | 87935 | 1.41e5 | 1.27e5 | 8840 | inactive
CG33012 (GeneID 36342) | DRSC06288 | 86470 | 93435 | 1.08e5 | 1.20e5 | 7825 | inactive
CG13018 (GeneID 50224) | DRSC06274 | 94495 | 86550 | 1.34e5 | 1.37e5 | 8995 | inactive
SmydA-8 (GeneID 31200) | DRSC18797 | 95105 | 1.13e5 | 1.98e5 | 1.49e5 | 8460 | inactive
SmydA-8 (GeneID 31200) | DRSC22064 | – | – | – | – | – | inactive
ari-2 (GeneID 37542) | DRSC04672 | 35790 | 33955 | 46530 | 55450 | 1982 | inactive
Gr94a (GeneID 117339) | DRSC13597 | 1.08e5 | 89185 | 1.54e5 | 1.13e5 | 11380 | inactive
dsx (GeneID 40940) | DRSC12649 | 1.56e5 | 1.40e5 | 1.55e5 | 1.23e5 | 10485 | inactive
dsx (GeneID 40940) | DRSC16934 | 1.63e5 | 2.06e5 | 1.45e5 | 1.26e5 | 12245 | inactive
CG34150 (GeneID 4379863) | DRSC13689 | 1.64e5 | 1.69e5 | 1.91e5 | 1.89e5 | 14070 | inactive
TORIP (GeneID 40158) | DRSC10104 | 84810 | 79520 | 48590 | 58300 | 6795 | inactive
CG8209 (GeneID 38888) | DRSC10970 | 2.70e5 | 2.46e5 | 3.89e5 | 2.36e5 | 15300 | inactive
CG15136 (GeneID 35033) | DRSC02436 | 1.14e5 | 1.16e5 | 1.06e5 | 1.28e5 | 10350 | inactive
PH4alphaSG2 (GeneID 43623) | DRSC15037 | 1.61e5 | 1.67e5 | 2.18e5 | 2.34e5 | 16245 | inactive
CG6614 (GeneID 34583) | DRSC02974 | 2.34e5 | 2.10e5 | 2.34e5 | 2.08e5 | 17525 | inactive
por (GeneID 32818) | DRSC20362 | 92345 | 66000 | 79970 | 87820 | 9615 | inactive
E(spl)mbeta-HLH (GeneID 43152) | DRSC16697 | 2.21e5 | 2.10e5 | 2.36e5 | 2.20e5 | 11780 | inactive
CG42582 (retired record) (GeneID 8673986) | DRSC20675 | 2.02e5 | 1.69e5 | 3.11e5 | 2.68e5 | 13770 | inactive
Rab9D + Rab9Fa + Rab9E | DRSC19853 | 1.31e5 | 1.18e5 | 2.47e5 | 2.29e5 | 8270 | inactive
Nnf1a (GeneID 37325) | DRSC06394 | 1.83e5 | 1.51e5 | 3.20e5 | 2.25e5 | 10165 | inactive
lilli (GeneID 33496) | DRSC00708 | 2.75e5 | 2.41e5 | 2.25e5 | 2.31e5 | 20885 | inactive
smp-30 (GeneID 41786) | DRSC17059 | 2.15e5 | 2.15e5 | 2.30e5 | 1.91e5 | 16300 | inactive
conv (GeneID 36588) | DRSC07213 | 63145 | 85385 | 93505 | 94740 | 6340 | inactive
be (GeneID 32430) | DRSC19607 | 2.25e5 | 1.75e5 | 2.31e5 | 2.15e5 | 12890 | inactive
be (GeneID 32430) | DRSC19944 | 97920 | 1.23e5 | 1.15e5 | 82365 | 15325 | inactive
be (GeneID 32430) | DRSC19945 | 82555 | 79110 | 99010 | 84250 | 9715 | inactive
CG8159 (GeneID 41040) | DRSC16392 | 1.03e5 | 94800 | 72210 | 88955 | 6805 | inactive
Naa35 (GeneID 37866) | DRSC04447 | 1.76e5 | 1.88e5 | 1.81e5 | 2.15e5 | 12015 | inactive
eIF4E6 (GeneID 43422) | DRSC14853 | 1.45e5 | 1.52e5 | 1.70e5 | 1.89e5 | 13225 | inactive
Mvb12 (GeneID 32791) | DRSC20027 | 72015 | 62870 | 87680 | 54585 | 10985 | inactive

5 entries from above in another layout.
| target gene | DRSC id | induced reporter light, run 1, well a | induced reporter light, run 1, well b | control promoter light, run 1, well a | control promoter light, run 1, well b | uninduced reporter light, run 1, well a | Call |
| --- | --- | --- | --- | --- | --- | --- | --- |
| be (GeneID 32430) | DRSC19607 | 2.25e5 | 1.75e5 | 2.31e5 | 2.15e5 | 12890 | inactive |
| be (GeneID 32430) | DRSC19944 | 97920 | 1.23e5 | 1.15e5 | 82365 | 15325 | inactive |
| be (GeneID 32430) | DRSC19945 | 82555 | 79110 | 99010 | 84250 | 9715 | inactive |
| CG8159 (GeneID 41040) | DRSC16392 | 1.03e5 | 94800 | 72210 | 88955 | 6805 | inactive |
| Naa35 (GeneID 37866) | DRSC04447 | 1.76e5 | 1.88e5 | 1.81e5 | 2.15e5 | 12015 | inactive |
